# Assay results: PubChem BioAssay AID2685 (National Center for Advancing Translational Sciences (NCATS), 2010)
# This is one part of the list. Further columns of the screen follow, without active or inactive calls. Compounds called inactive in the main read-out are mostly missing here. Potencies come from curve fits of mixed quality, noted in brackets.
# Test: qHTS Assay for Lipid Storage Modulators in Drosophila S3 Cells;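 on cell number change: cells counted by Cell Tracker Red CMTPX staining in the red channel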
# Conditions: BODIPY lipid droplet fluorescence, 18-24 h; for cell number change: measured here: cell count max response, cells fed with added oleic acid
# Method in brief: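 Laser-scanning cytometry quantifies lipid droplet accumulation (500–530 nm total intensity; droplet/cell object ratio) in oleic acid-fed (400 uM added) Drosophila S3 cells treated with a concentration series. 20 uM Triacsin C defined 100% inhibition.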
# [1] = measured here: cell number channel AC50, cells fed with added oleic acid
# [2] = measured here: lipid fluorescence (Fed channel) AC50, cells fed with added oleic acid
Structure (SMILES),cell number change,AC50 [1],AC50 [2]
S=C(NC1CCCC1)N1CCOCC1,-22.7%,"0.0651 µM [falling, full curve, poor fit]",–
CC(=O)Nc1ccc(NS(=O)(=O)C(F)(F)F)cc1,2.63%,–,–
Cc1ccc(C(=O)NCCc2nc3ccccc3[nH]2)cc1[N+](=O)[O-],-31.1%,"2.06 µM [falling, partial curve]","14.6 µM [falling, partial curve]"
O=C(NC1CCCC1)C(c1ccccn1)N(C(=O)c1csnn1)c1ccccc1Cl (centres undefined),-4.2%,–,"11.6 µM [rising, partial curve, poor fit]"
COc1ccc(CNc2ncc(-c3ccc(F)cc3)n2C)cc1OC,2.64%,–,–
Clc1cccc(OCCN2CCN(CCOc3cccc(Cl)c3)CC2)c1,-52.4%,"18.4 µM [falling, partial curve]","29.1 µM [falling, partial curve, poor fit]"
O=C(c1ccccc1)c1ccc(CN2C(=O)c3ccccc3C2=O)o1,1.79%,–,–
Cc1nc(Cl)sc1C(=O)Nc1ccc(Cl)cc1,-21.3%,–,"18.4 µM [rising, single point]"
Cc1nn(C)c(Cl)c1C(=O)NCC(=O)Nc1ccc(C(C)C)cc1,24.1%,–,–
CCOC(=O)c1c(C)nsc1NC(=O)c1ccco1,-24.7%,–,–
O=C(CN1C(=O)c2cccnc2Oc2ccc(Cl)cc21)NC1CCCCC1,13%,–,"6.51 µM [rising, full curve]"
Cc1cc(=O)oc2cc(OCC(=O)Nc3cccc(S(=O)(=O)N(C)C)c3)ccc12,–,–,"29.1 µM [rising, single point]"
O=C(Nc1ccccc1)c1n[nH]c(Cn2cncn2)n1,0.862%,–,"4.61 µM [falling, single point]"
CCOC(=O)c1oc2cccc(O)c2c1C,-1.25%,–,"3.26 µM [falling, partial curve, poor fit]"
Cc1ccc(-c2nnc(N3CCN(C(=O)c4cccs4)CC3)c3ccccc23)cc1,16.2%,"0.651 µM [rising, partial curve, poor fit]","0.0366 µM [rising, full curve, poor fit]"
NS(=O)(=O)c1cccnc1Nc1ccc(Cl)c(Cl)c1,-27.2%,–,–
O=C(NC1CCCCC1)C(c1ccc(O)cc1)N(C(=O)c1cnccn1)c1cccc(F)c1 (centres undefined),-8.97%,–,–
CC1CCN(c2ccccc2NC(=O)c2ccc(N3CCOCC3)c([N+](=O)[O-])c2)CC1,-56.8%,"29.1 µM [falling, single point]",–
Cc1ccn2cc(CCNC(=O)COc3ccccc3)nc2c1,-1.05%,–,–
CCc1nnc(NC(=O)CCN2C(=O)CCC2=O)s1,4.28%,–,"2.59 µM [rising, partial curve]"

Structure (SMILES),cell number change,AC50 [1],AC50 [2]
CCOc1ccc(CCNC(=O)CCNS(=O)(=O)c2ccc(Br)cc2)cc1OCC,4.69%,–,"20.6 µM [falling, single point]"
CCOc1ccccc1C(=O)N/N=C/c1cccc2cccnc12,-25.7%,–,"16.4 µM [falling, partial curve, poor fit]"
CN(CC(=O)Nc1ccc(F)cc1)C(=O)Cn1c(=O)oc2ccccc21,32%,–,"1.46 µM [rising, partial curve, poor fit]"
Cc1cc(C)c(C(=O)CC2(O)C(=O)Nc3ccccc32)cc1C (centres undefined),21.6%,–,"32.6 µM [rising, single point]"
CCN1C(=O)[C@H]2[C@@H](c3ccc(SC4CCCCC4)cc3)N3CCCC[C@@]3(C(=O)OC)[C@H]2C1=O,4.75%,–,"0.58 µM [rising, single point]"
CC(C)C(C(=O)C=[N+]=[N-])N1C(=O)c2ccccc2C1=O (centres undefined),-8.5%,"2.59 µM [falling, single point]","1.3 µM [rising, full curve, poor fit]"
COc1ccc(/C(N)=N/OC(=O)CSc2ccccc2)cc1,90.6%,"8.2 µM [rising, partial curve]",–
CCOc1ccc(NS(=O)(=O)c2ccc(OC)c(NC(=O)c3ccc4c(c3)OCCO4)c2)cc1,30.5%,"5.17 µM [rising, partial curve]","8.2 µM [rising, partial curve]"
COCCCn1c(SCC(=O)Nc2ccc(NC(=O)c3ccco3)c(OC)c2)nc2ccccc2c1=O,-78.8%,"29.1 µM [falling, single point]","29.1 µM [falling, single point]"
C=CCNc1nc(N)c(C(=C(C#N)C#N)c2ccc(Br)cc2)s1,-3.65%,–,"2.31 µM [falling, partial curve, poor fit]"
CSc1nc2ccc(NC(=O)c3c(-c4ccccc4)noc3C)cc2s1,-2.06%,–,"0.00461 µM [falling, full curve, poor fit]"
COC(=O)C1(C(=O)OC)Sc2ccccc2C1=O,-31.2%,"29.1 µM [falling, single point]","29.1 µM [falling, single point]"
COc1ccccc1-c1cc(-c2ccccc2)nc(SCC(=O)O)c1C#N,-11.1%,–,"20.6 µM [rising, partial curve, poor fit]"
COc1ccccc1OCCNC(=O)c1cc(C2CC2)nc2c1cnn2C(C)C,-13.2%,–,"1.84 µM [falling, full curve]"
O=C(CSc1nnc2scc(-c3ccccc3)n12)NCC1CCCO1 (centres undefined),5.87%,–,–
Cc1ccc(NC(=O)CSc2nc(C)c(C)c(C)n2)c([N+](=O)[O-])c1,30.6%,"4.61 µM [rising, partial curve]","2.59 µM [rising, single point]"
COCCNC(=S)N/N=C(\C)c1ccc(Cl)c(Cl)c1,3.91%,–,"6.51 µM [rising, single point]"
O=C(CC(=O)N1CCN(c2ccccn2)CC1)Nc1ccc2nc3n(c(=O)c2c1)CCCCC3,43.3%,"25.9 µM [rising, single point]","3.26 µM [rising, partial curve]"
COc1cccc(C2=NOC(C(=O)NCc3cccs3)C2)c1 (centres undefined),22.2%,–,"18.4 µM [rising, partial curve, poor fit]"
CCOc1ccccc1N/C=C(\C#N)c1nc2ccccc2n1C,28.6%,–,"3.66 µM [rising, partial curve]"

Structure (SMILES),cell number change,AC50 [1],AC50 [2]
Cc1ccc(S(=O)(=O)NCCN2CCOCC2)s1,-9.68%,"4.11 µM [rising, partial curve, poor fit]","4.11 µM [rising, partial curve]"
Cn1c(SCC(=O)O)nnc1-c1ccc2ncccc2c1,17.4%,"0.092 µM [falling, full curve, poor fit]","6.51 µM [falling, single point]"
CCOC(=O)C(NC(C)=O)(Nc1ccc(S(N)(=O)=O)cc1)C(F)(F)F (centres undefined),–,"2.31 µM [falling, partial curve, poor fit]",–
CC(=O)c1ccc(S(=O)(=O)Oc2ccc(-c3ccc(C(=O)O)cc3)cc2)cc1,20.7%,–,"2.91 µM [rising, single point]"
O=C(Nc1ccccc1)N1CCC(O)(c2cccc(C(F)(F)F)c2)CC1,-26.1%,–,–
COc1ccc(C(=O)Nc2ccccc2)cc1NC(=O)c1cccs1,-16.2%,–,"29.1 µM [falling, single point]"
CCn1cc(C(=O)N2CCCC2)c(=O)c2cc(S(=O)(=O)N3CCOCC3)ccc21,-80.3%,"29.1 µM [falling, single point]",–
CC(C)CC(C(=O)Nc1oc(-c2ccco2)c(-c2ccco2)c1C#N)N1C(=O)c2ccccc2C1=O (centres undefined),-2.72%,–,"0.13 µM [falling, full curve, poor fit]"
CNC(=O)NC(=O)COc1c(F)c(F)cc(F)c1F,-24.6%,"6.51 µM [rising, partial curve, poor fit]","25.9 µM [falling, single point]"
CC1(c2ccccc2)NC(=S)N2C1NC(=S)N2c1ccccc1 (centres undefined),52.8%,"7.31 µM [rising, partial curve]","9.2 µM [rising, partial curve]"
C/C(N)=C(/C#N)C(=O)COC(=O)CNS(=O)(=O)c1ccc(C)cc1,-18.1%,"0.731 µM [falling, full curve, poor fit]",–
COC(=O)c1cc(NC(=O)/C=C/c2ccc3c(c2)OCO3)cc(C(=O)OC)c1,-13.3%,–,"4.11 µM [falling, partial curve]"
COC(=O)c1ccccc1-n1c(CCC(=O)O)ccc1-c1ccccc1,-18.1%,–,–
COc1ccccc1-c1nc(-c2ccc(C)nc2OC)no1,68.6%,"0.517 µM [rising, full curve, poor fit]","0.651 µM [rising, full curve]"
S=c1[nH]nc(-c2ccc(Cl)cc2)n1CC1CCCO1 (centres undefined),2.52%,–,–
CC(C)C(=O)NC(=S)Nc1nnn(C)n1,41.9%,"16.4 µM [rising, partial curve, poor fit]","29.1 µM [rising, single point]"
Cc1cccc(C)c1NC(=O)CN(C)C(=O)c1ccccc1SCC(=O)N1CCCC1,–,"0.82 µM [falling, single point]",–
O=C(O)Cc1ccc(NC(=S)Nc2ccc(Br)cc2Cl)cc1,17.2%,–,"7.31 µM [falling, single point]"
CCOc1ccccc1NC(=O)CN1C(=O)COc2ccc(Cl)cc21,84.1%,"18.4 µM [rising, single point]","18.4 µM [rising, single point]"
